# At least one structure is not confirmed: it was looked up by name or label, or the drawing left a doubt.
# Test system: ATRX IFF NB cells
# Assay: Proliferation (Incucyte, percent confluence normalized to DMSO) of ATRX IFF NB cells
# Format: cell-based, human
# Details: 5 μM, 12 days, exclusively in ATRX IFF NB
# Description: GAPDH used as a loading control. […] Percent confluence normalized to DMSO for each condition and plotted at day 12. Values normalized mean n±SD (n=3). Statistical significance assessed using student's unpaired t-test with each cell line compared to DMSO (* indicates p<0.05). […] Percent AV positive cells plotted, values are mean n±SD (n=3). Statistical significance assessed using student's unpaired t-test with each cell line compared to DMSO (* indicates p<0.05). (d) Tumor volume measurements of CHLA-90 cells subcutaneously injected into immunocompromised mice. Mice were treated with vehicle or UNC1999 at 300 mg/kg of body weight for 25 days, values mean n±SEM (n=9). Statistical significance assessed using student's unpaired t-test compared to vehicle (* indicates p<0.001). […]
# Proliferation evaluated using the […] […] IC50 for each cell line calculated in Prism. […] Statistical significance assessed using student's unpaired t-test with each cell line compared to DMSO (* indicates p<0.05). […] Proliferation assessed in the same manner as (a). Statistical significance assessed using student's unpaired t-test with each cell line compared to DMSO (* indicates p<0.05). […] AV staining assessed in the same manner as (b). […] Proliferation assessed in the same manner as (a). […] AV staining assessed in the same manner as (b).
# GAPDH used as a loading control. […] Proliferation evaluated using the Incucyte™ Life-Cell Imaging System. […]
smiles,measurement,value
"CCN(c1cc(-c2ccc(CN3CCOCC3)cc2)cc(C(=O)NCc2c(C)cc(C)[nH]c2=O)c1C)C1CCOCC1 [EPZ-6438, Tazemetostat]",proliferation over a time course,diminished proliferation

# — patent US20220298510A1, “COMPOUNDS AND METHODS FOR INHIBITING CANCERS VIA REST INHIBITION” (Icahn School of Medicine at Mount Sinai, priority 2019, published 2022)
